# PubChem BioAssay AID1224830, NIAID, 2016
# Test: 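Host factors that control LPS-induced TNF expression in human macrophages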 (primary screen)
# Cells: human THP-1 monocytic leukaemia cells, TNF dual-luciferase reporter clone, PMA-differentiated to macrophage-like cells
# Knock-down reagent: siRNA pool against human genes, 50 nM
# Duration: LPS for 4 h, given about 3 days after siRNA transfection
# Conditions: bacterial LPS (TLR4 ligand), 10 ng/ml
# Measured: 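TNF firefly reporter luminescence divided by renilla, normalised to the plate median, then turned into a robust z-score for each replicate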
# Scale: TNF reporter robust z-score: higher = stronger TNF reporter response to LPS
# Rule for the call: 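Each well counts as active if its z-score is over 2.8 or under -1.5; controls are left without a call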
# In all, the deposit lists about 18,000 reagents; below is a random part of them. Over the whole deposit, about 2,900 (16%) were called active. 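Calls are made per well; low scores hint the gene aids the LPS response, high scores that it dampens it.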 Repeated entries: four replicate wells of each siRNA pool.
gene,TNF reporter robust z-score,Outcome
SUPT4H1,-0.6,inactive
SUPT4H1,2.12,inactive
SUPT4H1,-0.22,inactive
SUPT4H1,-0.05,inactive
WWC1,0.04,inactive
WWC1,0.23,inactive
WWC1,-0.15,inactive
WWC1,0.38,inactive
RRN3,1.33,inactive
RRN3,0.73,inactive
RRN3,1.12,inactive
RRN3,1.01,inactive
UGT2B7,0.2,inactive
UGT2B7,0.32,inactive
UGT2B7,-0.9,inactive
UGT2B7,-0.3,inactive
MASTL,-0.79,inactive
MASTL,-0.85,inactive
MASTL,-1.5,inactive
MASTL,-0.82,inactive

Next part (6 carried over from the part before).
gene,TNF reporter robust z-score,Outcome
UGT2B7,-0.9,inactive
UGT2B7,-0.3,inactive
MASTL,-0.79,inactive
MASTL,-0.85,inactive
MASTL,-1.5,inactive
MASTL,-0.82,inactive
KPTN,-1.16,inactive
KPTN,0.66,inactive
KPTN,-0.31,inactive
KPTN,-0.22,inactive
SLC23A2,0.07,inactive
SLC23A2,-0.86,inactive
SLC23A2,-0.68,inactive
SLC23A2,0.34,inactive
OR6X1,-0.39,inactive
OR6X1,0.87,inactive
OR6X1,-1.12,inactive
OR6X1,-0.12,inactive
LAMP1,-1.4,inactive
LAMP1,1.68,inactive
LAMP1,-1.09,inactive
LAMP1,-0.19,inactive
GBP7,0.15,inactive
GBP7,0.85,inactive
GBP7,0.69,inactive
GBP7,0.79,inactive
NDC1,-0.39,inactive
NDC1,0.02,inactive
NDC1,-0.61,inactive
NDC1,-0.27,inactive
GLOD5,-0.56,inactive
GLOD5,0.09,inactive
GLOD5,0.53,inactive
GLOD5,1.21,inactive
